Data as given in patent publication US6589738B1, “Genes essential for microbial proliferation and antisense thereto” (priority 1999, dated 2003).
Entries after “also recorded” stand apart in the source; their conditions may differ. At least one compound was matched to its structure with a doubt left.

Assays:
[1] = test system: E. coli expressing antisense to genes not involved in protein synthesis (atpB/E, visC, elaD, yohH); assay: Cell based assay: antibiotic sensitivity of comparison clones expressing antisense RNA to non-protein synthesis genes (Example 9); details: cells expressing antisense to atpB/E
[2] = test system: E. coli expressing antisense RNA to genes involved in protein synthesis (rplW, rplL, rplJ and others); assay: Cell based assay: antibiotic sensitivity of clones expressing antisense RNA to protein synthesis genes (Example 9)

CN(C)[C@@H]1C(O)=C(C(N)=O)C(=O)[C@@]2(O)C(O)=C3C(=O)c4c(O)cccc4[C@@](C)(O)[C@H]3C[C@@H]12 [Tetracycline]
sensitivity to tetracycline [1]: much less sensitive; also recorded: did not show the same increased sensitivity
sensitivity to tetracycline ([2]; cells with reduced levels of L7/L12 (genes rplL, rplJ), IPTG giving 50% growth inhibition): increased sensitivity
sensitivity to tetracycline ([2]; cells with reduced levels of L23 (rplW), IPTG induced): increased sensitivity
